Results deposited as PubChem BioAssay AID1224830 (NIAID, 2016)
The deposit covers about 18,000 reagents; shown is a part drawn at random. In the full data, about 2,900 (16%) are marked active. 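Calls are made per well; low scores hint the gene aids the LPS response, high scores that it dampens it.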 Repeated entries: four replicate wells of each siRNA pool. No sequences are given here.

- Assay: 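Host factors that control LPS-induced TNF expression in human macrophages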 (primary screen)
- Cells: human THP-1 monocytic leukaemia cells, TNF dual-luciferase reporter clone, PMA-differentiated to macrophage-like cells
- Reagents: siRNA pool against human genes, 50 nM
- Timing: LPS for 4 h, given about 3 days after siRNA transfection
- Conditions: bacterial LPS (TLR4 ligand), 10 ng/ml
- Measurement: 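Ratio of firefly to renilla light, scaled to the plate median and expressed as a robust z-score per replicate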
- Reading the numbers: TNF reporter robust z-score: higher = stronger TNF reporter response to LPS
- Call rule: 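Each well counts as active if its z-score is over 2.8 or under -1.5; controls are left without a call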

no.	gene	TNF reporter robust z-score	Call
1	CCKBR (GeneID 887)	-0.15	inactive
2	CCKBR (GeneID 887)	0.9	inactive
3	CCKBR (GeneID 887)	0.96	inactive
4	CCKBR (GeneID 887)	0.01	inactive
5	TMEM47 (GeneID 83604)	-0.41	inactive
6	TMEM47 (GeneID 83604)	-0.04	inactive
7	TMEM47 (GeneID 83604)	-0.49	inactive
8	TMEM47 (GeneID 83604)	0.21	inactive
9	KIAA0753 (GeneID 9851)	0.46	inactive
10	KIAA0753 (GeneID 9851)	0.55	inactive
11	KIAA0753 (GeneID 9851)	0.04	inactive
12	KIAA0753 (GeneID 9851)	-0.51	inactive
13	STMN3 (GeneID 50861)	0.39	inactive
14	STMN3 (GeneID 50861)	0.92	inactive
15	STMN3 (GeneID 50861)	0.93	inactive
16	STMN3 (GeneID 50861)	1.51	inactive
17	SRP54 (GeneID 6729)	-2.32	active
18	SRP54 (GeneID 6729)	-2.24	active
19	SRP54 (GeneID 6729)	-2.08	active
20	SRP54 (GeneID 6729)	-2.28	active
21	NPHS1 (GeneID 4868)	0.2	inactive
22	NPHS1 (GeneID 4868)	3.23	active
23	NPHS1 (GeneID 4868)	2.1	inactive
24	NPHS1 (GeneID 4868)	2.21	inactive
25	ATP5F1B (GeneID 506)	-0.48	inactive
26	ATP5F1B (GeneID 506)	-0.1	inactive
27	ATP5F1B (GeneID 506)	-0.56	inactive
28	ATP5F1B (GeneID 506)	0.18	inactive
29	LIAS (GeneID 11019)	-0.41	inactive
30	LIAS (GeneID 11019)	-0.62	inactive
31	LIAS (GeneID 11019)	-0.73	inactive
32	LIAS (GeneID 11019)	-0.39	inactive
33	PEG10 (GeneID 23089)	1.23	inactive
34	PEG10 (GeneID 23089)	-0.1	inactive
35	PEG10 (GeneID 23089)	3.33	active
36	PEG10 (GeneID 23089)	2.83	active
37	CAV1 (GeneID 857)	-0.98	inactive
38	CAV1 (GeneID 857)	-0.16	inactive
39	CAV1 (GeneID 857)	-1.64	active
40	CAV1 (GeneID 857)	0.16	inactive
41	PMEL (GeneID 6490)	-0.25	inactive
42	PMEL (GeneID 6490)	1.23	inactive
43	PMEL (GeneID 6490)	-0.26	inactive
44	PMEL (GeneID 6490)	0.19	inactive
45	KCNK3 (GeneID 3777)	-0.16	inactive
46	KCNK3 (GeneID 3777)	1	inactive
47	KCNK3 (GeneID 3777)	0.16	inactive
48	KCNK3 (GeneID 3777)	2.6	inactive
49	ACADM (GeneID 34)	-1.01	inactive
50	ACADM (GeneID 34)	0.61	inactive
51	ACADM (GeneID 34)	-0.69	inactive
52	ACADM (GeneID 34)	-0.42	inactive
53	ANGPTL1 (GeneID 9068)	1.07	inactive
54	ANGPTL1 (GeneID 9068)	0.95	inactive
55	ANGPTL1 (GeneID 9068)	1.34	inactive
56	ANGPTL1 (GeneID 9068)	1.63	inactive
57	GUK1 (GeneID 2987)	-0.23	inactive
58	GUK1 (GeneID 2987)	0.81	inactive
59	GUK1 (GeneID 2987)	0.98	inactive
60	GUK1 (GeneID 2987)	0.52	inactive
61	PTGFR (GeneID 5737)	0.34	inactive
62	PTGFR (GeneID 5737)	0.25	inactive
63	PTGFR (GeneID 5737)	-0.27	inactive
64	PTGFR (GeneID 5737)	1.37	inactive
65	DSC1 (GeneID 1823)	0.27	inactive
66	DSC1 (GeneID 1823)	0.48	inactive
67	DSC1 (GeneID 1823)	0.06	inactive
68	DSC1 (GeneID 1823)	0.03	inactive
69	FOXD4L4 (GeneID 349334)	0.58	inactive
70	FOXD4L4 (GeneID 349334)	3.97	active
71	FOXD4L4 (GeneID 349334)	0.83	inactive
72	FOXD4L4 (GeneID 349334)	1.95	inactive
73	PODXL2 (GeneID 50512)	-0.73	inactive
74	PODXL2 (GeneID 50512)	-0.02	inactive
75	PODXL2 (GeneID 50512)	-1.39	inactive
76	PODXL2 (GeneID 50512)	-0.28	inactive
77	TRIM56 (GeneID 81844)	4.37	active
78	TRIM56 (GeneID 81844)	1.18	inactive
79	TRIM56 (GeneID 81844)	2.18	inactive
80	TRIM56 (GeneID 81844)	3.26	active
81	SDR39U1 (GeneID 56948)	-0.61	inactive
82	SDR39U1 (GeneID 56948)	2.4	inactive
83	SDR39U1 (GeneID 56948)	-0.58	inactive
84	SDR39U1 (GeneID 56948)	0.03	inactive
85	APOA4 (GeneID 337)	-0.63	inactive
86	APOA4 (GeneID 337)	-0.04	inactive
87	APOA4 (GeneID 337)	-0.81	inactive
88	APOA4 (GeneID 337)	-0.17	inactive
89	FGF7 (GeneID 2252)	-1.17	inactive
90	FGF7 (GeneID 2252)	-1.14	inactive
91	FGF7 (GeneID 2252)	-1.15	inactive
92	FGF7 (GeneID 2252)	-0.87	inactive
93	NMU (GeneID 10874)	1.02	inactive
94	NMU (GeneID 10874)	0.75	inactive
95	NMU (GeneID 10874)	-0.14	inactive
96	NMU (GeneID 10874)	0.62	inactive
97	CACNG4 (GeneID 27092)	-0.59	inactive
98	CACNG4 (GeneID 27092)	0.24	inactive
99	CACNG4 (GeneID 27092)	-0.35	inactive
100	CACNG4 (GeneID 27092)	-0.82	inactive
101	MLPH (GeneID 79083)	-0.24	inactive
102	MLPH (GeneID 79083)	-0.4	inactive
103	MLPH (GeneID 79083)	0.48	inactive
104	MLPH (GeneID 79083)	-0.38	inactive
105	ZNF584 (GeneID 201514)	-0.09	inactive
106	ZNF584 (GeneID 201514)	1.57	inactive
107	ZNF584 (GeneID 201514)	0.57	inactive
108	ZNF584 (GeneID 201514)	-0.13	inactive
109	ZMYND15 (GeneID 84225)	0.09	inactive
110	ZMYND15 (GeneID 84225)	0.36	inactive
111	ZMYND15 (GeneID 84225)	1.2	inactive
112	ZMYND15 (GeneID 84225)	0.32	inactive

Targets listed so far whose target name starts with G or g (4):
gene	TNF reporter robust z-score	Call
GUK1 (GeneID 2987)	-0.23	inactive
GUK1 (GeneID 2987)	0.81	inactive
GUK1 (GeneID 2987)	0.98	inactive
GUK1 (GeneID 2987)	0.52	inactive
